Paper PMC5807052, “Robo1 Forms a Compact Dimer-of-Dimers Assembly” (Structure(London, England:1993), 2018)
Results are given in words; binding and its absence hold for the method and conditions named. For part of these data: Binding seen in cells or lysates may run through a third protein. Some entries that bind do so weakly or less than the wild type. Blank lines part the entries; values can stand above or below the substance they belong to.

Amino acid sequences for entries named in this document (tags omitted). A change or cut given only in a name is not applied to a line headed by its entry. Residues count along the entry.
UniProt Q9Y6N7: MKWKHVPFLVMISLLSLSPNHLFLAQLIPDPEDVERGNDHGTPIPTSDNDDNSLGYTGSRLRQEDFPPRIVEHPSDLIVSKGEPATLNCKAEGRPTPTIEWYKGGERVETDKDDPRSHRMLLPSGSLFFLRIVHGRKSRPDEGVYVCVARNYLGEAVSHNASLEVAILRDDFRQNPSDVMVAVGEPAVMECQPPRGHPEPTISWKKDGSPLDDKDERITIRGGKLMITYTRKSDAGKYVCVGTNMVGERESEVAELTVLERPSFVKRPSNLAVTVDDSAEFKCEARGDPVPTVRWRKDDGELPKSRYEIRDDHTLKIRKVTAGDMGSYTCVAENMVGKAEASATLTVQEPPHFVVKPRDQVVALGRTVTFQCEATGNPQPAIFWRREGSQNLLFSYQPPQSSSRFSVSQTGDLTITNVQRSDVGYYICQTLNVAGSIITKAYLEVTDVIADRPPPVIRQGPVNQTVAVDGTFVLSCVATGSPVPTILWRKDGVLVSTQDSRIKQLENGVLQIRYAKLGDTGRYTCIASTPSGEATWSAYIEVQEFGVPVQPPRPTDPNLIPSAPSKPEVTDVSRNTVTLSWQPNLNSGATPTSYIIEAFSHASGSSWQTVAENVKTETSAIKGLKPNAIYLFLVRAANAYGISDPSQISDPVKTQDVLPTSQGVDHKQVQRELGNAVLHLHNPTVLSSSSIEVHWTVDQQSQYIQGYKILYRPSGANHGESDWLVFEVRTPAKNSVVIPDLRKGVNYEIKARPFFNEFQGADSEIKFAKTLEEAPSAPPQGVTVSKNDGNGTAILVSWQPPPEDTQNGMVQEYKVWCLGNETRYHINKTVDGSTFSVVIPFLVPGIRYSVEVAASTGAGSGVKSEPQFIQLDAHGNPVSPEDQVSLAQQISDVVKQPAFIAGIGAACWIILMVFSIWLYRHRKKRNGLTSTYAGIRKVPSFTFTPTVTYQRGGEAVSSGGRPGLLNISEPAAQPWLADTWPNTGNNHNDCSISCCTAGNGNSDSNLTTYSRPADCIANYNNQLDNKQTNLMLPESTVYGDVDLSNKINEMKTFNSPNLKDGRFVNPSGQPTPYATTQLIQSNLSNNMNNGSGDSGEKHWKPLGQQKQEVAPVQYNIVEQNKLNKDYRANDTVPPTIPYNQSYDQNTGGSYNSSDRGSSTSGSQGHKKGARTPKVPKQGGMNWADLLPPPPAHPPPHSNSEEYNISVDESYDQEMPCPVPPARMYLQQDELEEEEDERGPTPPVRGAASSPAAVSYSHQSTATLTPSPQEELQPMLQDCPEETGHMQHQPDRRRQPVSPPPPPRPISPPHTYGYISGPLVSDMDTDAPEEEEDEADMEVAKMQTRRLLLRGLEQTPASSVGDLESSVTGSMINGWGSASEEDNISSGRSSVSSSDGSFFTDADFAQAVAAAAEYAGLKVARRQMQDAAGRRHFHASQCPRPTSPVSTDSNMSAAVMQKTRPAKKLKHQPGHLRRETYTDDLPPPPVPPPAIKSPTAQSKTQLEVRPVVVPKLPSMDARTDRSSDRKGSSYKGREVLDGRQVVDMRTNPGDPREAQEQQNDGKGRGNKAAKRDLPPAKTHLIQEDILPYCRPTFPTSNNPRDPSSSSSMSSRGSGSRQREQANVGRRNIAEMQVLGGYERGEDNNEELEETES
Full length Robo1 (residues 1-1651), as Robo1-EGFP and Robo1-mCherry: residues 26-1651 of Q9Y6N7
Robo1 Ig1-5 (human Robo1 residues 61-543): residues 61-543 of Q9Y6N7
Robo1 Ig1-4 (human Robo1 residues 61-446): residues 61-446 of Q9Y6N7

Tests used:
[1] = biological target: Full length Robo1 (residues 1-1651), as Robo1-EGFP and Robo1-mCherry (human) (UniProt Q9Y6N7); assay: proximity ligation; HEK-293T co-transfected with Robo1-EGFP and Robo1-mCherry; fixed, permeabilised; anti-GFP JL-8 and anti-DsRed antibodies, DuoLink II; cells treated with PBS or 0.1 uM mouse Slit2-N for 30 min
[2] = biological target: Robo1 Ig1-4 (human Robo1 residues 61-446) (human) (UniProt Q9Y6N7); assay: SAXS; EMBL X33 beamline, 1 to 4 mg/mL, 10 °C; data at the lowest concentrations used; both purified
[3] = biological target: Robo1 Ig1-5 (human Robo1 residues 61-543) (human) (UniProt Q9Y6N7); assay: as above

binding [1]: binds
Substance: Full length Robo1 (residues 1-1651), as Robo1-EGFP and Robo1-mCherry (from UniProt Q9Y6N7-1 26-1651) (receptor)

binding [2]: no binding (tested: 1 to 4 mg/mL)
Substance: Robo1 Ig1-4 (human Robo1 residues 61-446) (from UniProt Q9Y6N7-1 61-446) (domain or fragment)

binding [3]: no binding (tested: 1 to 4 mg/mL)
Substance: Robo1 Ig1-5 (human Robo1 residues 61-543) (from UniProt Q9Y6N7-1 61-543) (domain or fragment)
